# According to PubChem BioAssay (Tox21):
# Amino acid sequences for entries named in this document (tags omitted). A change or cut given only in a name is not applied to a line headed by its entry.
# UniProt P04150: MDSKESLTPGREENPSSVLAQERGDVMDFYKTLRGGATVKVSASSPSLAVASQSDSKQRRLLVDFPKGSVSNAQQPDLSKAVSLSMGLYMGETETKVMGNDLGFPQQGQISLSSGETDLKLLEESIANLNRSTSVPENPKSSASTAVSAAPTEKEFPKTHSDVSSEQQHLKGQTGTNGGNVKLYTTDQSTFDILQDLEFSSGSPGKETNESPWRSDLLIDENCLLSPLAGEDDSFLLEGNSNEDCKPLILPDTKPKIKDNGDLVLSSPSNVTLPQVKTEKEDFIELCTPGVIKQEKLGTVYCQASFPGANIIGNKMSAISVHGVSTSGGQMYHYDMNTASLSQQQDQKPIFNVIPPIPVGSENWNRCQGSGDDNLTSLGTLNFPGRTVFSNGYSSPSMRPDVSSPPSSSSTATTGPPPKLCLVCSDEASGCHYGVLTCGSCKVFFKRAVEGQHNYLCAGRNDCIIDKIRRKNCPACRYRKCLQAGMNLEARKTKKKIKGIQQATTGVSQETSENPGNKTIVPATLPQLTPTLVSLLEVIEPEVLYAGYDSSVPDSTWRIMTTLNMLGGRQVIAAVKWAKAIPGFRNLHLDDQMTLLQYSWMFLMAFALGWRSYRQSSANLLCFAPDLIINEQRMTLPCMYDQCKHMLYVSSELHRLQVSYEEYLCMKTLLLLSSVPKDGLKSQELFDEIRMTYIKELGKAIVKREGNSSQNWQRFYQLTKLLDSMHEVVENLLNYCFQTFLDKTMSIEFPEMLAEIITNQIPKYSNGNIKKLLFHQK
# Values joined by “and” are separate entries in the source; they are usually repeats but may differ in a detail not shown here. Identical values can stand only once. Active and inactive are the calls of the source. Unless noted, calls follow the shape of the dose curve; as a rule, active = well fitted curve in the direction sought with a large enough effect in the repeat runs; inconclusive = weak or mixed curves; inactive = no such curve, though single readings can be large; an effect the other way counts as inactive or inconclusive.
# Key:
# [1] = qHTS assay to test for compound auto fluorescence at 535 nm (green) in HEK293 cells (AID 720680); also: potency is read from the fitted curve at half-maximal effect
# [2] = qHTS assay to test for compound auto fluorescence at 535 nm (green) in HEK293 cell free culture (AID 720682); also: potency is read from the fitted curve at half-maximal effect
# How it was run: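 Cell-free medium (DMEM, 10% FBS) receives compound or DMSO by pintool. Plate read directly at Ex 485/Em 535 nm. Signal converted to fluorescein equivalency.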
# [3] = qHTS assay to test for compound auto fluorescence at 460 nm (blue) in HEK293 cell free culture (AID 720681); also: potency is read from the fitted curve at half-maximal effect
# How it was run: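 Blue fluorescence (Ex 405/Em 460 nm, triamterene-equivalent) was read immediately after pin transfer of compound or DMSO into medium (DMEM, 10% FBS) without cells.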
# [4] = molecular target: Glucocorticoid receptor (Homo sapiens) (UniProt P04150); test: qHTS assay to identify small molecule antagonists of the glucocorticoid receptor (GR) signaling pathway (AID 720692; active = well fitted inhibition curve with a large enough effect in the signal ratio in the repeat runs, not every such curve was filed as active; inconclusive = weak or mixed curves, or effect the other way; inactive = no such curve, though single readings can be large or run the other way; the % refers to the signal ratio; also: % is scaled to controls: 0 for no effect and ±100 for the full control effect); conditions: GR-bla HeLa, beta-lactamase FRET ratio, dexamethasone-stimulated, 18 h
# How it was run: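 Quantitative HTS in antagonist format: HeLa cells expressing endogenous GR and a stably integrated GRE-bla reporter, stimulated with 5 nM dexamethasone (final) alongside test compounds for 18 h.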
# [5] = qHTS assay for small molecule disruptors of the mitochondrial membrane potential - cell viability (AID 720634; calls by dose curve; also: nearly all actives have a fitted effect of over 20% in size; also: potency is read from the fitted curve at half-maximal effect)
# How it was run: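 ATP-based luminescent viability readout (CellTiter-Glo, 30 min, room temperature) in HepG2 cells multiplexed with the m-MPI membrane potential dye; compound exposure lasted 1 hr at 37 C.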
# [6] = qHTS assay for small molecule disruptors of the mitochondrial membrane potential (AID 720635); conditions: HepG2 mitochondrial membrane potential, Mito-MPS dye ratio; ratio activity, negative = MMP loss: at 83.2 µM (top of the series) unless noted; also: potency is read from the fitted curve at half-maximal effect; as to ratio activity, negative = MMP loss: % is scaled to controls: 0 for no effect and ±100 for the full control effect
# How it was run: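 Mitochondrial membrane potential tracked with Mito-MPS dye, red aggregates (ex 540/em 590 nm) against green monomers (ex 490/em 535 nm). Compound treatment 1 hr at 37C, dye 30 min in HepG2.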
# [7] = molecular target: Glucocorticoid receptor (Homo sapiens) (UniProt P04150); test: qHTS assay to identify small molecule agonists of the glucocorticoid receptor (GR) signaling pathway (AID 720691; active = well fitted activation curve with a large enough effect in the signal ratio in the repeat runs, not every such curve was filed as active; inconclusive = weak or mixed curves, or effect the other way; inactive = no such curve, though single readings can be large or run the other way; the % refers to the signal ratio; also: % is scaled to controls: 0 for no effect and ±100 for the full control effect); conditions: GR-bla HeLa, beta-lactamase reporter ratio, 18 h; activation: at 62.4 µM (top of the series) unless noted
# How it was run: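 Cells: GR-bla HeLa, endogenous GR with stably integrated GRE-beta-lactamase reporter. Treatment 18 h, 37 C, compounds delivered in DMSO. Detection via LiveBLAzer B/G FRET substrate, 2 h RT, fluorescence intensity.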
# [8] = qHTS assay for small molecules that induce genotoxicity in human embryonic kidney cells expressing luciferase-tagged ATAD5 - cell viability (AID 651634; calls by dose curve; also: potency is read from the fitted curve at half-maximal effect; nearly all actives have a fitted effect of over 25% in size)
# How it was run: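 After 15.5 hr incubation with compound at 37C, 5% CO2, HEK293T ATAD5-luciferase cells received CellTiter-Fluor reagent; fluorescence intensity was quantified following 30 min at 37C.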
# [9] = activity change, negative = inhibition: at 58.5 µM (top of the series) unless noted
# Tags tell the direction and shape of the fitted curve or compound fluorescence and quenching.
smiles,measurement,setting,value
CCN(CC)c1ccc2c(-c3ccccc3C(=O)O)c3ccc(=[N+](CC)CC)cc-3oc2c1,Potency,[1],"inconclusive: 35.5 µM [fluorescent, partial curve]"
same,Potency,[2],"inconclusive: 31.6 µM [fluorescent, partial curve]"
CC(C)(C)CC(C)(C)c1ccc(Nc2ccc(C(C)(C)CC(C)(C)C)cc2)cc1,Potency,[3],"inconclusive: 3.16 µM [rising, single point]"
CC1(C)C(C=C(Cl)Cl)C1C(=O)OCc1cccc(Oc2ccccc2)c1 (stereo unspecified),"activity change, negative = inhibition",[4]; at 58.5 µM (top of the series),inactive: -0.177% and inactive: -19.3%
COc1cc(NS(=O)(=O)c2ccc(N)cc2)nc(OC)n1,Potency,[5],inactive
C=CCCCCCCCCCCCC,Potency,[5],inactive
same,Potency,[6],inactive
same,Potency,[4]; [9],inactive
Brc1c2ccccc2cc2ccccc12,Potency,[5],active: 55 µM
same,Potency,[6],active: 30.9 µM
same,activation,[7],active: 9.34% [inconclusive] [at 79.2 µM]
same,Potency,[4]; [9],inactive
O=Nc1ccc(O)cc1,Potency,[8],"inconclusive: 26.7 µM [falling, partial curve, poor fit]"
same,Potency,[6],active: 670 nM and active: 13.7 µM
same,"activity change, negative = inhibition",[4]; [9],inconclusive: -13.1%
O=C(Oc1ccccc1)c1ccc(O)cc1,Potency,[5],"inconclusive: 61.5 µM [cytotoxic, partial curve, poor fit] and active: 61.1 µM"
same,Potency,[6],"inconclusive: 61.5 µM [inhibitor, single point]"
same,Potency,[7],inactive
same,"activity change, negative = inhibition",[4]; at 58.5 µM (top of the series),inconclusive: -10.9%
same,"activity change, negative = inhibition",[4]; at 78.9 µM (top of the series),inconclusive: 6.91%
C=C(C)C(=O)OCCN(CC)CC,Potency,[5],inactive
same,Potency,[6],inactive
CC(C)C(=O)Nc1ccc([N+](=O)[O-])c(C(F)(F)F)c1,Potency,[5],"inconclusive: 11.9 µM [cytotoxic, partial curve] and active: 12.5 µM and active: 27.3 µM"
same,Potency,[6],active: 13.3 µM and active: 6.29 µM and active: 9.69 µM
COc1ccc(N)c([N+](=O)[O-])c1,Potency,[8],"inconclusive: 68.6 µM [falling, partial curve, poor fit]"
same,Potency,[4]; [9],inactive
Cc1ccc([N+](=O)[O-])cc1Cl,Potency,[5],inactive
same,"ratio activity, negative = MMP loss",[6],inconclusive: 23% [at 95.3 µM]
OCCCCCCCCCCCCBr,Potency,[8],"inconclusive: 34.9 µM [falling, partial curve, poor fit]"
same,Potency,[6],active: 62.1 µM
same,"activity change, negative = inhibition",[4]; [9],inconclusive: 30.1% [at 78.9 µM]
